Data on two molecules can be found in PMC4589357, “The Role of Electrostatic Interactions in Binding of Histone H3K4me2/3 to the Sgf29 Tandem Tudor Domain” (PLoS ONE, 2015).

The assay deals with T1, Sgf29 D266W variant, residues 115-293 (human, UniProt Q96ES7 115-293, D266W).
T1 construct: source: E. coli Rosetta BL21 DE3 PlysS, purified (Ni-NTA, TEV cleavage, SEC Superdex 75)
T1 sequence (looked up): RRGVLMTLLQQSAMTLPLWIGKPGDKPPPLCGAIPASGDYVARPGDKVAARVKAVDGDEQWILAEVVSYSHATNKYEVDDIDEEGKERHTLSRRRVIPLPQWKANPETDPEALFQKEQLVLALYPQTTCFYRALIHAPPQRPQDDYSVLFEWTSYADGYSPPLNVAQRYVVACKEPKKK
As to the kind of experiment: ITC; peptide (generally 1.2 mM) titrated to protein (100 uM); for variants of low affinity 2.4 mM peptide to 200 uM protein; 25 mM TRIS pH 8.0, 50 mM NaCl, 1 mM DTT; one-site model; both purified. A general note: In ITC the heat of successive injections is recorded.

These are yes or no findings as the source states them, for the method shown. Where a sequence is shown, tags or fusion partners need not be part of it.

Turning to ARTKQTARKS (dimethyllysine (Kme2) at position 4; carboxylic acid at the C terminus) [10-mer histone 3 peptide H3K4me2 (ARTKme2QTARKS)], the binding result is reported as “no binding (tested: K d > 200 μM)”. Consider ARTKQTARKS (trimethyllysine (Kme3) at position 4; carboxylic acid at the C terminus) [10-mer histone 3 peptide H3K4me3 (ARTKme3QTARKS)], for which the binding entry is recorded as “no binding (tested: K d > 200 μM)”.
